Consider one substance from publication PMC9138040.

Sequences of proteins named here, by UniProt entry; tags and fusion partners are left off.
UniProt F1M707: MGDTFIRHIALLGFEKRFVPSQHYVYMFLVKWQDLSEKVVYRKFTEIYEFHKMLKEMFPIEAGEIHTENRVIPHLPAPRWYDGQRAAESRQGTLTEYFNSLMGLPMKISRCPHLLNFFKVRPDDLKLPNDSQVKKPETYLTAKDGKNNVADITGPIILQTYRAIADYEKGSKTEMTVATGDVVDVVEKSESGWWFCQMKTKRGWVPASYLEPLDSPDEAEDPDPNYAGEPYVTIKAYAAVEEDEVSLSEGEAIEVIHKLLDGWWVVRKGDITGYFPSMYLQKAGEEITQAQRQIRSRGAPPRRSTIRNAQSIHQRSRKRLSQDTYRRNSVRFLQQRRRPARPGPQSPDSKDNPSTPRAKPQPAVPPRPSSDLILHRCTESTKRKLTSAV

The target in the assay is T1, TNFR1 (rat (endogenous in RMCs)) (UniProt P22934).
T1 sequence: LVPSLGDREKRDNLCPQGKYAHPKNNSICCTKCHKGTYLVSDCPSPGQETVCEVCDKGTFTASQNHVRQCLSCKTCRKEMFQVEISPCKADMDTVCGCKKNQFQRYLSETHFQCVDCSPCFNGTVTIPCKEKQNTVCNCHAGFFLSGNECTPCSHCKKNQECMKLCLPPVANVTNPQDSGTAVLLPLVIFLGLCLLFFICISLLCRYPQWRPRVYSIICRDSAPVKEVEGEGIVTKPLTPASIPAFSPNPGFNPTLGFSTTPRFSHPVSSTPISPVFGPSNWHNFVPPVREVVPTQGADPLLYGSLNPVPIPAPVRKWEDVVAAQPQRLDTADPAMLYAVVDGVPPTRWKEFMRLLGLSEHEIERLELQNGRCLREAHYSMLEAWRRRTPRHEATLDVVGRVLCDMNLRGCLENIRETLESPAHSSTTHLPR
Nature of the assay: co-IP; whole-cell lysate (1 mg) of RMCs stimulated with TNF-α for different periods; 2 µg anti-TNFR1 antibody at 4 °C for 24 h, protein A-agarose magnetic beads; Western blotting for TNFR1, Rac1, p47phox. On the technique in general: In western blotting, separated proteins are transferred to a membrane and probed.

No constants are given. Whether binding was seen depends on the method and setting. In cells and extracts the contact can be indirect. Some binding calls cover weakened binding; strength is not graded here.

Regarding p47^phox (from UniProt F1M707 1-389), the binding entry was “binds”.
